Measured data: PubChem BioAssay AID1508588 (Peter MacCallum Cancer Centre, 2020)
Assay: 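Which gene losses make BRAF-mutant melanoma cells more responsive to vemurafenib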 (primary screen). Cell system: human WM266.4 melanoma cells (BRAF V600 mutant). Reagents: siRNA pool against human genes, 40 nM. Time to read-out: 96 h from transfection to read-out. Treatment: vemurafenib 300 nM (about IC25), added 48 h after transfection, for 48 h; comparison arm got DMSO vehicle only. Measured: 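Cell gain (DAPI nuclei at end minus before drug, mean of two replicates) and medium lactate by absorbance per cell, both as ratio to non-targeting siRNA, also grouped into fold-change classes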. Scale: cell gain with vemurafenib: higher = more cell gain than with non-targeting siRNA; lactate per cell with vemurafenib: higher = more lactate made per cell. Call rule: 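a knock-down counts as enhancing when its fold-change classes with vehicle and with vemurafenib, taken together, show a stronger drug effect on cell gain or lactate per cell; exact class pairs not stated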. Calls: active = enhances vemurafenib effect; inactive = no enhancement seen.
Here is an unselected part of about 18,000 reagents. 790 of them (4.4%) were called active. 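Calls rest on a combination of fold-change classes in drug and vehicle arms, not all shown here.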 No sequences are given here.

gene | cell gain with vemurafenib | lactate per cell with vemurafenib | outcome
CLIC5 (CLIC family member 5) | 0.32 | 2.19 | inactive
MDC1 (mediator of DNA damage checkpoint 1) | 0.4 | 0.73 | inactive
SERPINB9 (serpin family B member 9) | 1.57 | 0.74 | inactive
SPON2 (spondin 2) | 0.96 | 0.99 | inactive
CORT (cortistatin) | 0.17 | -0.09 | active
ZBTB6 (zinc finger and BTB domain containing 6) | 0.44 | 1.25 | inactive
CRTAP (cartilage associated protein) | 1.05 | 0.53 | inactive
MED15 (mediator complex subunit 15) | 0.43 | 1.86 | inactive
SLC25A19 | 1.35 | 0.56 | inactive
FDCSP (follicular dendritic cell secreted protein) | 0.8 | 0.26 | inactive
KCNU1 (potassium calcium-activated channel subfamily U member 1) | 0.74 | 1.08 | inactive
PRSS38 (serine protease 38) | 0.6 | 0.64 | inactive
FAM171A1 (family with sequence similarity 171 member A1) | 0.53 | 0.83 | inactive
FEV (FEV transcription factor, ETS family member) | 0.2 | 1.34 | inactive
LRIT1 (leucine rich repeat, Ig-like and transmembrane domains 1) | 0.18 | 0.83 | inactive
AP5S1 (adaptor related protein complex 5 subunit sigma 1) | 0.31 | 0.74 | inactive
PLEKHH3 (pleckstrin homology, MyTH4 and FERM domain containing H3) | 0.82 | 0.73 | inactive
RNF32 (ring finger protein 32) | 0.91 | 0.75 | inactive
PSTPIP2 (proline-serine-threonine phosphatase interacting protein 2) | 0.47 | 1.23 | inactive
ZNF69 (zinc finger protein 69) | 0.33 | 0.64 | active
MYF6 (myogenic factor 6) | 0.31 | 1.08 | inactive
HOXD9 (homeobox D9) | 0.23 | 0.9 | inactive
GLRX (glutaredoxin) | 0.33 | 0.24 | inactive
SPG11 (SPG11 vesicle trafficking associated, spatacsin) | 0.41 | 1.14 | inactive
SLC38A1 | 0.22 | 1.1 | inactive
TNPO2 (transportin 2) | 0.41 | 0.62 | inactive
FAM91A1 (family with sequence similarity 91 member A1) | 0.84 | 0.92 | inactive
DEPDC4 (DEP domain containing 4) | 0.76 | 0.82 | inactive
TTR (transthyretin) | 0.15 | 0.98 | inactive
GTF2H4 (general transcription factor IIH subunit 4) | 0.43 | 1.37 | inactive
MB21D2 (Mab-21 domain containing 2) | 0.7 | 0.74 | inactive
NRL (neural retina leucine zipper) | 0.39 | 0.94 | inactive
TATDN2 (TatD DNase domain containing 2) | 0.89 | 0.92 | inactive
ZEB1 (zinc finger E-box binding homeobox 1) | 0.55 | 1.54 | inactive

Targets listed so far whose target name starts with S or s:
gene | cell gain with vemurafenib | lactate per cell with vemurafenib | outcome
SERPINB9 (serpin family B member 9) | 1.57 | 0.74 | inactive
SPON2 (spondin 2) | 0.96 | 0.99 | inactive
SLC25A19 | 1.35 | 0.56 | inactive
SPG11 (SPG11 vesicle trafficking associated, spatacsin) | 0.41 | 1.14 | inactive
SLC38A1 | 0.22 | 1.1 | inactive
